The target in the experiment is T1, human HER3(1242-1267)-Bi-PEG-amide (human, Bi-PEG (biotin-PEG); C-terminal amide).
T1 construct: Injected as analyte singly grafted on streptavidin; also called HER3 peptide
T1 peptide: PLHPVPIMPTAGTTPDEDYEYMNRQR
Nature of the experiment: SPR (BIACORE A100), mAb captured by anti-mouse Fc, peptide grafted on streptavidin as analyte. A general note: In SPR one partner is held on a chip, and binding of the other changes the refractive index at the surface.

These are yes or no findings as the source states them, for the method shown. Some entries that bind do so weakly or less than the wild type.

B1: antibody 7.2.32 (antibody, V domains shown)
VH: EVQLQESGGGLVQPKGSLQLSCAASGFTFNTYAMHWVRQAPGKGLEWVARIRTESSDYATDYADSVKDRFIISRDDSQNMLYLQMNNLKSEDTAIYYCVRSSGFDYWGQGTTLTVSS
VL: DIQMTQSPSLPVSLGDQASISCRSSQSLVHDNGNTYLHWFLQKPGQSPKLLIYKVSNRFSGVPDRFGGSGSGTDFTLKISGVEAEDLGVYFCSQGTHVPTFGGGTKLEIK
notes: Mouse monoclonal antibody, tested from hybridoma supernatant captured by anti-mouse IgG Fc; also called selected antibody directed against HER3
On to B1, for which the binding result is recorded as “binds”.

These data come from patent US20170275380A1 (ROCHE DIAGNOSTICS OPERATIONS, published 2017).
